Measurements reported in PubChem BioAssay AID1224826 (NIAID, 2016).
This is one part, drawn at random, of about 17,000 deposited reagents. About 1,110 of all reagents (6.6%) were called active. 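Active means lowered or raised reporter signal; replicate intensities are raw and not normalised per plate.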 A number with no mark means an inactive call. Further read-outs or replicates are left out here.

- Purpose: 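Knock-downs that raise or lower Tnf reporter signal after endotoxin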 (primary screen)
- System: RAW264.7 G9 macrophages from mouse bearing reporters for p65 (GFP) and the Tnf promoter (mCherry)
- Knock-down reagent: siRNA pool against mouse genes, 100 nM
- Timing: 16 h of LPS stimulation, after 2 days of siRNA transfection
- Conditions: bacterial lipopolysaccharide (Salmonella minnesota R595), 10 ng/ml
- Measurement: 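Nuclear mCherry signal of the Tnf promoter reporter measured by imaging after background removal, scaled to each plate median and turned into robust z-scores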
- Scale: Tnf reporter robust z-score: higher = stronger Tnf promoter reporter signal after LPS
- Rule for the call: 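a well counts as active at a score of -1.3 or below (Tlr4 knock-down control median) or above 3 (raised signal); controls and wells holding fewer than 50 cells are excluded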
- Calls: active = Tnf reporter clearly lowered or raised; inactive = no clear change in Tnf reporter

Trim52 (tripartite motif-containing 52): Tnf reporter robust z-score = -0.86; fewer than 50 cells in well = enough cells in well
Apol7c (apolipoprotein L 7c): Tnf reporter robust z-score = -1.09; fewer than 50 cells in well = enough cells in well
Abca9 (ATP-binding cassette, sub-family A member 9): Tnf reporter robust z-score = 0.44; fewer than 50 cells in well = enough cells in well
Chchd1 (coiled-coil-helix-coiled-coil-helix domain containing 1): Tnf reporter robust z-score = 1.07; fewer than 50 cells in well = enough cells in well
Pcdhb20 (protocadherin beta 20): Tnf reporter robust z-score = 0.36; fewer than 50 cells in well = enough cells in well
Msx3 (msh homeobox 3): Tnf reporter robust z-score = 3.04 (active); fewer than 50 cells in well = enough cells in well
Efcab9 (EF-hand calcium binding domain 9): Tnf reporter robust z-score = 1.62; fewer than 50 cells in well = enough cells in well
Zer1 (zyg-11 related, cell cycle regulator): fewer than 50 cells in well = fewer than 50 cells per well; well left out of calls
Slco1a6: Tnf reporter robust z-score = -0.67; fewer than 50 cells in well = enough cells in well

Continued (3 carried over from the part before).
Efcab9 (EF-hand calcium binding domain 9): Tnf reporter robust z-score = 1.62; fewer than 50 cells in well = enough cells in well
Zer1 (zyg-11 related, cell cycle regulator): fewer than 50 cells in well = fewer than 50 cells per well; well left out of calls
Slco1a6: Tnf reporter robust z-score = -0.67; fewer than 50 cells in well = enough cells in well
Pspc1 (paraspeckle protein 1): Tnf reporter robust z-score = -0.08; fewer than 50 cells in well = enough cells in well
Sntg1 (syntrophin, gamma 1): fewer than 50 cells in well = fewer than 50 cells per well; well left out of calls
Opn1mw: Tnf reporter robust z-score = -0.61; fewer than 50 cells in well = enough cells in well
Tmem184a (transmembrane protein 184a): Tnf reporter robust z-score = -0.09; fewer than 50 cells in well = enough cells in well
Stox2 (storkhead box 2): Tnf reporter robust z-score = 0.64; fewer than 50 cells in well = enough cells in well
Slc49a3: fewer than 50 cells in well = fewer than 50 cells per well; well left out of calls
Serpinb10: Tnf reporter robust z-score = 3.62 (active); fewer than 50 cells in well = enough cells in well
Loxl2 (lysyl oxidase-like 2): Tnf reporter robust z-score = -0.04; fewer than 50 cells in well = enough cells in well
Mcm7 (minichromosome maintenance complex component 7): Tnf reporter robust z-score = 0.8; fewer than 50 cells in well = enough cells in well
Slc35a1: fewer than 50 cells in well = fewer than 50 cells per well; well left out of calls
Or51a10 (olfactory receptor family 51 subfamily A member 10): Tnf reporter robust z-score = 1.37; fewer than 50 cells in well = enough cells in well
Mrgprf (MAS-related GPR, member F): Tnf reporter robust z-score = 3.43 (active); fewer than 50 cells in well = enough cells in well
Tspan2 (tetraspanin 2): Tnf reporter robust z-score = 1.65; fewer than 50 cells in well = enough cells in well
Hspb2 (heat shock protein family B (small) member 2): Tnf reporter robust z-score = 0.08; fewer than 50 cells in well = enough cells in well
Prss2 (serine protease 2): Tnf reporter robust z-score = 0.5; fewer than 50 cells in well = enough cells in well
Mustn1 (musculoskeletal, embryonic nuclear protein 1): Tnf reporter robust z-score = -0.75; fewer than 50 cells in well = enough cells in well
Gng5 (G protein subunit gamma 5): Tnf reporter robust z-score = 0.59; fewer than 50 cells in well = enough cells in well
Rnf103 (ring finger protein 103): Tnf reporter robust z-score = 0.43; fewer than 50 cells in well = enough cells in well
